According to the supplement of paper PMC10849652:
Some of the results follow.

Sequences of proteins named here, by UniProt entry; tags and fusion partners are left off. A change or cut given only in a name is not applied to a line headed by its entry.
UniProt O60573: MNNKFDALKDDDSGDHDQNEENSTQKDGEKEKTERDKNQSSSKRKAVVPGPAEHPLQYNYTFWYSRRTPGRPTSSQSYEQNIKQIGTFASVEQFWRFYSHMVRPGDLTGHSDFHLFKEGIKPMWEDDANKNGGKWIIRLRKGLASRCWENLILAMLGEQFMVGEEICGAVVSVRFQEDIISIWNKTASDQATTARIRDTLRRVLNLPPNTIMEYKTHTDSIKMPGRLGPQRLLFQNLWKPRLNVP
UniProt P24534: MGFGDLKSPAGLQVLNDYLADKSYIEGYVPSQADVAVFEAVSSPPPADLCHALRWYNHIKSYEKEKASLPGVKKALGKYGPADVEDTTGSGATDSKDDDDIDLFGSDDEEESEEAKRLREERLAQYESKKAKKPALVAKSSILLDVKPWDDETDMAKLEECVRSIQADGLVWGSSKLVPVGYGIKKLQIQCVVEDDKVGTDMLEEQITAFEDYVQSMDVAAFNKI
UniProt Q9NPA0: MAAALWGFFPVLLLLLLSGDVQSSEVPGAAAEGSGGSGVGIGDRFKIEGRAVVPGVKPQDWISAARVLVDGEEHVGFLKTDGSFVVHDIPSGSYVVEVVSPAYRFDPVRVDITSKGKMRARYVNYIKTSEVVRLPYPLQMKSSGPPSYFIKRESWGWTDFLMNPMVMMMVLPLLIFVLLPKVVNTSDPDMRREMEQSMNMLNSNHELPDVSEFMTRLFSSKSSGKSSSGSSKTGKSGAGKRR
UniProt Q99613, whole entry, looked up: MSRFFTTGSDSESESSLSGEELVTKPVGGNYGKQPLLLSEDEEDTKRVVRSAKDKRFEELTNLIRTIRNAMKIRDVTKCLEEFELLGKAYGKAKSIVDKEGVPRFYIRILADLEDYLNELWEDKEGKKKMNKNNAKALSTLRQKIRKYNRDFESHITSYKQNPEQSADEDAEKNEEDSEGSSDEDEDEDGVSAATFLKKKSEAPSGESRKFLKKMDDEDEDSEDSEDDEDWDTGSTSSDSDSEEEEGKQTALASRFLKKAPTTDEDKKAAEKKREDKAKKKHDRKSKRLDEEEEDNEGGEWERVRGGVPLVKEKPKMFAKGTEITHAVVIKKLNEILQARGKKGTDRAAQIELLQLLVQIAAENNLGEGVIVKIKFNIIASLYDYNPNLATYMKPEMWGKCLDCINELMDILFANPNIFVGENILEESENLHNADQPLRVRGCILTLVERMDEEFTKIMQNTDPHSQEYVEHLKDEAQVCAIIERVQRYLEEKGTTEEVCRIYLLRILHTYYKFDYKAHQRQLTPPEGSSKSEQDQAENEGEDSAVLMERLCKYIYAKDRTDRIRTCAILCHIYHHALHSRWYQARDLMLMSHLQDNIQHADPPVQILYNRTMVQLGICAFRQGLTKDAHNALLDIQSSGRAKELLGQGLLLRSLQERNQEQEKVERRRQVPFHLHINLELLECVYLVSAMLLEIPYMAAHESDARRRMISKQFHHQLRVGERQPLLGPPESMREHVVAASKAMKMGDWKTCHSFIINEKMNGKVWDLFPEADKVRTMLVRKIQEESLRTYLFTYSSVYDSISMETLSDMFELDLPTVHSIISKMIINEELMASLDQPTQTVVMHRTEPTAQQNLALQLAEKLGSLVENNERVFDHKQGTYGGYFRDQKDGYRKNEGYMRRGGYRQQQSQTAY
UniProt P23588, whole entry, looked up: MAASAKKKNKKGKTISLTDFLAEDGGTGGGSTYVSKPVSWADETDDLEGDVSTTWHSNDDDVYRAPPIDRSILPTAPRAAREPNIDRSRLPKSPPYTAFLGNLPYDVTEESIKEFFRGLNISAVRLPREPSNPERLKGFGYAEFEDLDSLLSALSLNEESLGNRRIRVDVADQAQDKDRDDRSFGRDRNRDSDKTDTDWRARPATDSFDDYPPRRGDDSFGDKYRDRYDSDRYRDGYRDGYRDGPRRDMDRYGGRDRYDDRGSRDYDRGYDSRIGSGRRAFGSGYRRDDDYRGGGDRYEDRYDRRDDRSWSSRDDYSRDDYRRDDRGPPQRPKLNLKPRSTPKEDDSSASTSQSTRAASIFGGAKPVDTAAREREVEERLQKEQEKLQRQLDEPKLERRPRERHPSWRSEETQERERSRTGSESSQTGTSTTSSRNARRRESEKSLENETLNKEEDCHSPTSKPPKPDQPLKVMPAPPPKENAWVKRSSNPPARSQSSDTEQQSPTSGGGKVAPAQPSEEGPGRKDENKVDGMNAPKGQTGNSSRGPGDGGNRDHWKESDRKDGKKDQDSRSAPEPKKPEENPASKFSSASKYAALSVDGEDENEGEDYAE
UniProt Q96C19: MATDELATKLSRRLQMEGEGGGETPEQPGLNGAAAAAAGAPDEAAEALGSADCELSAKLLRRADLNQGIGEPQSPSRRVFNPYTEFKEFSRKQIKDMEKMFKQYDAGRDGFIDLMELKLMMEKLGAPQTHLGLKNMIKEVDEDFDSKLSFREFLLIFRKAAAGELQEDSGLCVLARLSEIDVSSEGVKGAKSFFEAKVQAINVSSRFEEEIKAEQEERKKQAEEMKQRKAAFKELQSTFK
UniProt Q96KQ7: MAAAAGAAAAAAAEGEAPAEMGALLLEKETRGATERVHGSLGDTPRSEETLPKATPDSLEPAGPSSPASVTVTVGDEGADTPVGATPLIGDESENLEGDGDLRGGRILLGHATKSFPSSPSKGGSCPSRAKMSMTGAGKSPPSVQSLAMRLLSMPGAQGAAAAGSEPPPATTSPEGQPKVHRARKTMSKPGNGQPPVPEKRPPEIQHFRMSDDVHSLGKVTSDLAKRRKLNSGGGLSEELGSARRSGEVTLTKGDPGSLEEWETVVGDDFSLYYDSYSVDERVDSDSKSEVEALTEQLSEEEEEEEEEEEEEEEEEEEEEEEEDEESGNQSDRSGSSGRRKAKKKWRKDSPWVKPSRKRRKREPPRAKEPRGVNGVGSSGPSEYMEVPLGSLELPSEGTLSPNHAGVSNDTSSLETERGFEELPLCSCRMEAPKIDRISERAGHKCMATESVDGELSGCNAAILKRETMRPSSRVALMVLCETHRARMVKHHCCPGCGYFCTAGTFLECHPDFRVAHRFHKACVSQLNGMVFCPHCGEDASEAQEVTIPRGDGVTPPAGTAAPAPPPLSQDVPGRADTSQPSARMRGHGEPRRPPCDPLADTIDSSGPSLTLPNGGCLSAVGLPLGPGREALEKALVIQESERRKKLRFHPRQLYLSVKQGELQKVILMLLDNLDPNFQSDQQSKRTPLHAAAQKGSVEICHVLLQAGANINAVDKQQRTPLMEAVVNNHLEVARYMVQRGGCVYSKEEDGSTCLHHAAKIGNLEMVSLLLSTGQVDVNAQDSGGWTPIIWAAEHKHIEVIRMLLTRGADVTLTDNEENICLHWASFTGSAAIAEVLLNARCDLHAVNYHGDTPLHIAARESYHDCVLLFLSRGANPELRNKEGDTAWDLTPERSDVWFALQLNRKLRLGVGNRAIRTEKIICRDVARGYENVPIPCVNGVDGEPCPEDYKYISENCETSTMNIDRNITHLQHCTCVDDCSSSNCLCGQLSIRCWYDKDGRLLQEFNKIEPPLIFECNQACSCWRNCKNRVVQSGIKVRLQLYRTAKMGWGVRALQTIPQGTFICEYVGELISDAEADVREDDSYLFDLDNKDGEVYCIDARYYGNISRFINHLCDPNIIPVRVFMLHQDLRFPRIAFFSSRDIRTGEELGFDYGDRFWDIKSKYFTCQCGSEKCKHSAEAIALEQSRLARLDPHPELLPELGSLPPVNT
UniProt Q9GZT9: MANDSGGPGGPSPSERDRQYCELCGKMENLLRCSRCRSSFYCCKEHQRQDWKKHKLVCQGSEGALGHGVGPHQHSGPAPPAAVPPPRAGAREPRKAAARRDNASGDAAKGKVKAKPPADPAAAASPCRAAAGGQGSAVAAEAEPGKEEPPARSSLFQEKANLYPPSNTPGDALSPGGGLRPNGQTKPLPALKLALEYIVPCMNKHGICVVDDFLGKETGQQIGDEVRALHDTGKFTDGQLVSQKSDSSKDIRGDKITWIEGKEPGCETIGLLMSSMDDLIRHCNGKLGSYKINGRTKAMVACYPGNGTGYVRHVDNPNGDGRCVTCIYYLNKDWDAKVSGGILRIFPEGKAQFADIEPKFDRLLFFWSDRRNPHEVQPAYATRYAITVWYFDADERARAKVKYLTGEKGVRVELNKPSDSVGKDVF
UniProt Q8IZ81: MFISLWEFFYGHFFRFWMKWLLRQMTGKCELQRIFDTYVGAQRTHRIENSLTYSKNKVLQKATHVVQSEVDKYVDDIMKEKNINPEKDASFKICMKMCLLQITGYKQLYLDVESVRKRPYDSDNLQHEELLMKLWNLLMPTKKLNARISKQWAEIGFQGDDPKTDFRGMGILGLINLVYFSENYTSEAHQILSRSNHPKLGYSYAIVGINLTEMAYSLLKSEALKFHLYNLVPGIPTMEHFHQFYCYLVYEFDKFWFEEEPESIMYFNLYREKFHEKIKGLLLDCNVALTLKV
UniProt Q9H9B1: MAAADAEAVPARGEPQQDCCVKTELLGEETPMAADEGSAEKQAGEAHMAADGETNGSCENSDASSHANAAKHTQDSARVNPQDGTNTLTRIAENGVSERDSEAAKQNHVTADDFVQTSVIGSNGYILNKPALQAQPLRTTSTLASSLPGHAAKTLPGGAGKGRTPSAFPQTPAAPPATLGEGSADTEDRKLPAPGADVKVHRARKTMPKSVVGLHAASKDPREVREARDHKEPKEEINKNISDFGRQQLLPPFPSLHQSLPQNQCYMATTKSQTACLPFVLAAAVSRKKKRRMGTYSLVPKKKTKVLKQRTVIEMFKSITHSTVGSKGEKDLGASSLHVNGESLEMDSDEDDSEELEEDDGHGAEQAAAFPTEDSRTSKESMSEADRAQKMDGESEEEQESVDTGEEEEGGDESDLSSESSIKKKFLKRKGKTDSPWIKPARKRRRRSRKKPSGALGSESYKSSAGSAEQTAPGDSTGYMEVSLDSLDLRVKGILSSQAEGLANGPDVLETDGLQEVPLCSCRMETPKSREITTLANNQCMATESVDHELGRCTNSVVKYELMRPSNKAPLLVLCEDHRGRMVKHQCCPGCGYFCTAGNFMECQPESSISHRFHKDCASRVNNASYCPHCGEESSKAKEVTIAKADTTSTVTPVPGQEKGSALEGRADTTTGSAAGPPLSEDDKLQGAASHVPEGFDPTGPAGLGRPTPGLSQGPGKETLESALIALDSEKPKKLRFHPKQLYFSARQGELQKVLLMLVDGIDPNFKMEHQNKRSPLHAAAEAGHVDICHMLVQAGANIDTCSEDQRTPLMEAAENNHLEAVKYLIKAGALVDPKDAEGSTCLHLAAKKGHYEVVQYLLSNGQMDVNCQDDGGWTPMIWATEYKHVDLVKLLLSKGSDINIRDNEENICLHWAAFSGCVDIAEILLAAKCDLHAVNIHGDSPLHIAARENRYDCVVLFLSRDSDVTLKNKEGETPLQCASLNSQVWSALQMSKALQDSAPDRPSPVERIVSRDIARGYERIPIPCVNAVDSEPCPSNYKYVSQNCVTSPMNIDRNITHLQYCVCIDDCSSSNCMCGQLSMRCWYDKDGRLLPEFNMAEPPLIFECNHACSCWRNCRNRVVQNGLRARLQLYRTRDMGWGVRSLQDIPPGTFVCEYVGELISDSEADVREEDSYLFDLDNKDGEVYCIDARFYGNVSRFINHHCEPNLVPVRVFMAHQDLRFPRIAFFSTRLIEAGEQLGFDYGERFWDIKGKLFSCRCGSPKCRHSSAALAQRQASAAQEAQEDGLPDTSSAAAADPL
UniProt Q9BQ52: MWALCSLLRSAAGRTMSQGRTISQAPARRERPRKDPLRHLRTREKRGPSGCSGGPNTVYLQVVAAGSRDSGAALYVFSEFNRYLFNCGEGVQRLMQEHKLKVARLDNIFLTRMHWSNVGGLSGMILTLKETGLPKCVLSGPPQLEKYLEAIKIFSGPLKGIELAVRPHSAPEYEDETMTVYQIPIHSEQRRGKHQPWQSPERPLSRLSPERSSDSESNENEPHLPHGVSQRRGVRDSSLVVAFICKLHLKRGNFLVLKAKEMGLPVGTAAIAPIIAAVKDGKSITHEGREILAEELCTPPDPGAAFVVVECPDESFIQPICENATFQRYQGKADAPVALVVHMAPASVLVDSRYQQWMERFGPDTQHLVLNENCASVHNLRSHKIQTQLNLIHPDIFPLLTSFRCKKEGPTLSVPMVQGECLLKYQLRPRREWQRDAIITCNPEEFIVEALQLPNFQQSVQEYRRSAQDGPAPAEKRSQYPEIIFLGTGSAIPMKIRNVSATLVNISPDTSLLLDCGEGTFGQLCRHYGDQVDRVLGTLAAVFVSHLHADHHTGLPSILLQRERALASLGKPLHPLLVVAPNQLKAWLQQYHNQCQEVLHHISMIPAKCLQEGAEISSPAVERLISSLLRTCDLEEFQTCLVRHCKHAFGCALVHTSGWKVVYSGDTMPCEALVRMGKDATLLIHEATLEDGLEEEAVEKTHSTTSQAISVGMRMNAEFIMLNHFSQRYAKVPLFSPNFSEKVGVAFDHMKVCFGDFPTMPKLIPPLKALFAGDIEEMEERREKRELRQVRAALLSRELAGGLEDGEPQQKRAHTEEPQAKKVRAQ

Columns and labels:
Experiment in all cases: log2 fold change, soluble protein after heating vs DMSO (PISA); higher = thermal stabilisation; K562 cells, 10 uM, 30 min; active = over 0.2 and 3.5 SD of the protein, either way, in both replicates (recomputed)
[1] = compound: CC1=C(C=C(C=C1)NC(=O)C2=CC(=CC=C2)C(C)(C)C#N)NC3=CC4=C(C=C3)N=CN(C4=O)C
Procedure, shortened: (§1)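 K562 cells at 2×10^6 cells/mL were given 10 μM compound for 30 min. Aliquots then went through 3 min of heating across 48°C-58°C, were pooled, and were extracted in PBS with 0.5% NP-40 at 4°C, and the supernatant after 21,000xg for 90 min was quantified by TMTpro 16plex LC-MS/MS with channel sums equalised. Thermal stability relative to control samples, from duplicates, is given as log2 fold change.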

[2] = compound: CC1=C(C=C(C=C1)NC(=O)C2=CC(=CC=C2)N(C)C)NC(=O)C3=CC=C(C=C3)O
Procedure, shortened: as §1

[3] = compound: CC1=CC=C(C=C1)SC2=C3C=C(SC3=CN=C2)C(=O)N
Procedure, shortened: as §1

[4] = compound: CC1=NC(=CC=C1)C2=C(N=C(N2)C(C)(C)C)C3=CC4=NC=CN=C4C=C3
Procedure, shortened: as §1

[5] = compound: CCCCN(Cc1ccc(C(=O)NO)cc1)C(=O)Nc1ccccc1 [Nexturastat A]
Procedure, shortened: as §1

[6] = compound: CCCS(=O)(=O)Nc1ccc(F)c(C(=O)c2c[nH]c3ncc(-c4ccc(Cl)cc4)cc23)c1F [vemurafenib]
Procedure, shortened: as §1

[7] = compound: CCCS(=O)(=O)Nc1ccc(F)c(C(=O)c2c[nH]c3ncc(Cl)cc23)c1F
Procedure, shortened: as §1

[8] = compound: CCCc1cc(C)[nH]c(=O)c1CNC(=O)c1cc(-c2ccnc(N3CCN(C)CC3)c2)cc2c1cnn2C(C)C
Procedure, shortened: as §1

[9] = compound: CCN(CC)Cc1ccc2cc(COC(=O)Nc3ccc(C(=O)NO)cc3)ccc2c1 [givinostat]
Procedure, shortened: as §1

[10] = compound: CCN(CCCOc1ccc2c(Nc3cc(CC(=O)Nc4cccc(F)c4)[nH]n3)ncnc2c1)CCOP(=O)(O)O [barasertib]
Procedure, shortened: as §1

Measured: log2 fold change

ENO2 (UniProt P09104)
inactive: [1] -0.033 | [2] 0.04 | [3] 0.011 | [4] -0.007 | [5] -0.068 | [6] 0.034 | [7] 0.035 | [8] -0.025 | [9] -0.013 | [10] -0.005

EIF4E2 (UniProt O60573)
inactive: [1] -0.089 | [2] -0.006 | [3] 0.061 | [4] 0.089 | [5] 0.097 | [6] 0.126 | [7] 0.069 | [8] 0 | [9] 0.031 | [10] 0.083

EIF3E (UniProt P60228)
inactive: [1] -0.021 | [2] -0.06 | [3] 0.048 | [4] -0.074 | [5] 0.248 | [6] 0.074 | [7] 0.055 | [8] 0.109 | [9] 0.149 | [10] 0.099

EEF1B2 (UniProt P24534)
inactive: [1] 0.024 | [2] -0.025 | [3] -0.007 | [4] 0.031 | [5] 0.031 | [6] 0.024 | [7] 0.02 | [8] -0.009 | [9] 0.023 | [10] 0.055

ELP4 (UniProt Q96EB1)
inactive: [1] -0.059 | [2] 0.057 | [3] 0.03 | [4] -0.012 | [5] 0.17 | [6] -0.016 | [7] -0.09 | [8] -0.034 | [9] -0.044 | [10] 0.02

EEF1E1 (UniProt O43324)
inactive: [1] 0.033 | [2] 0.022 | [3] -0.019 | [4] -0.033 | [5] 0.188 | [6] -0.037 | [7] 0.053 | [8] 0.048 | [9] 0.02 | [10] 0.041

EML3 isoform 2 (UniProt Q32P44)
inactive: [1] -0.038 | [2] 0.081 | [3] -0.014 | [4] -0.092 | [5] 0.264 | [6] -0.086 | [7] -0.048 | [8] 0.159 | [9] 0.113 | [10] -0.017

EIF1 (UniProt P41567)
inactive: [1] -0.005 | [2] 0.048 | [3] -0.019 | [4] -0.005 | [5] 0.015 | [6] -0.031 | [7] -0.055 | [8] -0.053 | [9] -0.042 | [10] -0.047

EMC7 (UniProt Q9NPA0)
inactive: [1] 0 | [2] -0.03 | [3] -0.017 | [4] -0.018 | [5] -0.014 | [6] -0.006 | [7] -0.012 | [8] -0.104 | [9] 0.028 | [10] 0.001

EIF1AX (UniProt P47813)
inactive: [1] 0.058 | [2] -0.015 | [3] -0.025 | [4] 0.065 | [5] -0.041 | [6] 0.015 | [7] 0.061 | [8] -0.047 | [9] 0.007 | [10] 0.003

EIF3C (UniProt Q99613)
inactive: [1] -0.027 | [2] -0.063 | [3] 0.024 | [4] -0.019 | [5] 0.259 | [6] 0.024 | [7] 0.06 | [8] 0.075 | [9] 0.137 | [10] 0.071

EIF2D (UniProt P41214)
inactive: [1] -0.018 | [2] -0.034 | [3] 0.165 | [4] -0.034 | [5] 0.118 | [6] 0.082 | [7] 0.222 | [8] 0.09 | [9] 0.174 | [10] 0.104

EIF4B (UniProt P23588)
inactive: [1] 0.02 | [2] 0.013 | [3] -0.009 | [4] 0.015 | [5] -0.008 | [6] -0.043 | [7] -0.03 | [8] 0.011 | [9] -0.03 | [10] 0.008

EFHD2 (UniProt Q96C19)
inactive: [1] 0.007 | [2] 0.031 | [3] 0.018 | [4] 0.088 | [5] -0.044 | [6] 0.071 | [7] 0.103 | [8] -0.012 | [9] 0.024 | [10] 0.036

ENTPD5 (UniProt O75356)
inactive: [1] -0.04 | [2] -0.049 | [3] -0.035 | [4] 0.043 | [5] -0.023 | [6] -0.026 | [7] -0.018 | [8] 0.049 | [9] -0.014 | [10] -0.039

EHMT2 (UniProt Q96KQ7)
inactive: [1] -0.016 | [2] -0.047 | [3] 0.018 | [4] -0.006 | [5] -0.091 | [6] -0.063 | [7] -0.064 | [8] 0.084 | [9] 0.007 | [10] 0.038

EGLN1 (UniProt Q9GZT9)
inactive: [1] -0.14 | [2] 0.009 | [3] -0.013 | [4] 0.048 | [5] -0.096 | [6] -0.007 | [7] 0.006 | [8] 0.017 | [9] -0.191 | [10] 0.066

EEF1AKNMT (UniProt Q8N6R0)
inactive: [1] 0.078 | [2] -0.037 | [3] 0.031 | [4] 0.026 | [5] -0.026 | [6] 0.084 | [7] 0.062 | [8] 0.075 | [9] 0.04 | [10] 0.076

ENPP3 (UniProt O14638)
inactive: [1] 0.034 | [2] -0.044 | [3] 0.105 | [4] 0.068 | [5] 0 | [6] -0.082 | [7] 0.062 | [8] 0.021 | [9] 0.008 | [10] 0.019

EEF1G isoform 2 (UniProt P26641)
inactive: [1] 0.035 | [2] -0.015 | [3] 0.014 | [4] 0.049 | [5] -0.062 | [6] 0.07 | [7] 0.101 | [8] 0.095 | [9] -0.013 | [10] 0.037

ELMOD2 (UniProt Q8IZ81)
inactive: [1] 0.003 | [2] 0.043 | [3] -0.009 | [4] 0.025 | [5] 0.047 | [6] -0.008 | [7] -0.045 | [8] -0.01 | [9] -0.01 | [10] -0.015

Pulled one by one from the entries so far (2):
EIF4E2 (UniProt O60573)
inactive: [1] -0.089 | [2] -0.006 | [3] 0.061 | [4] 0.089 | [5] 0.097 | [6] 0.126 | [7] 0.069 | [8] 0 | [9] 0.031 | [10] 0.083

EIF3C (UniProt Q99613)
inactive: [1] -0.027 | [2] -0.063 | [3] 0.024 | [4] -0.019 | [5] 0.259 | [6] 0.024 | [7] 0.06 | [8] 0.075 | [9] 0.137 | [10] 0.071

(listing goes on)

EIF4H (UniProt Q15056)
inactive: [1] 0.03 | [2] -0.009 | [3] 0 | [4] 0.062 | [5] 0.007 | [6] -0.017 | [7] 0.003 | [8] 0.033 | [9] -0.032 | [10] 0.005

EHMT1 (UniProt Q9H9B1)
inactive: [1] 0.031 | [2] -0.041 | [3] -0.086 | [4] -0.053 | [5] 0.098 | [6] -0.059 | [7] 0.06 | [8] -0.225 | [9] 0.085 | [10] -0.121

ELAC2 (UniProt Q9BQ52)
inactive: [1] -0.017 | [2] 0.017 | [3] 0.01 | [4] -0.002 | [5] -0.056 | [6] -0.031 | [7] 0.015 | [8] -0.04 | [9] -0.097 | [10] -0.021

ENY2 (UniProt Q9NPA8)
inactive: [1] 0.067 | [2] -0.033 | [3] 0.042 | [4] 0.053 | [5] -0.1 | [6] -0.002 | [7] 0.023 | [8] -0.064 | [9] -0.073 | [10] -0.006

EIF2AK4 (UniProt Q9P2K8)
inactive: [1] 0.051 | [2] -0.054 | [3] 0.054 | [4] -0.053 | [5] 0.063 | [6] -0.002 | [7] -0.012 | [8] -0.195 | [9] 0.307 | [10] 0.03

ELOB (UniProt Q15370)
inactive: [1] -0.011 | [2] -0.035 | [3] -0.042 | [4] -0.005 | [5] 0.043 | [6] -0.011 | [7] -0.02 | [8] 0.08 | [9] -0.043 | [10] 0.045

EFNB1 (UniProt P98172)
inactive: [1] 0.109 | [2] -0.02 | [3] 0.027 | [4] 0.009 | [5] 0.058 | [6] -0.011 | [7] 0.011 | [8] 0.089 | [9] 0.006 | [10] 0.014
